The record followed here is PMC9117275.

Sequences of proteins named here, by UniProt entry; tags and fusion partners are left off. Residues count along the entry.
UniProt P15056: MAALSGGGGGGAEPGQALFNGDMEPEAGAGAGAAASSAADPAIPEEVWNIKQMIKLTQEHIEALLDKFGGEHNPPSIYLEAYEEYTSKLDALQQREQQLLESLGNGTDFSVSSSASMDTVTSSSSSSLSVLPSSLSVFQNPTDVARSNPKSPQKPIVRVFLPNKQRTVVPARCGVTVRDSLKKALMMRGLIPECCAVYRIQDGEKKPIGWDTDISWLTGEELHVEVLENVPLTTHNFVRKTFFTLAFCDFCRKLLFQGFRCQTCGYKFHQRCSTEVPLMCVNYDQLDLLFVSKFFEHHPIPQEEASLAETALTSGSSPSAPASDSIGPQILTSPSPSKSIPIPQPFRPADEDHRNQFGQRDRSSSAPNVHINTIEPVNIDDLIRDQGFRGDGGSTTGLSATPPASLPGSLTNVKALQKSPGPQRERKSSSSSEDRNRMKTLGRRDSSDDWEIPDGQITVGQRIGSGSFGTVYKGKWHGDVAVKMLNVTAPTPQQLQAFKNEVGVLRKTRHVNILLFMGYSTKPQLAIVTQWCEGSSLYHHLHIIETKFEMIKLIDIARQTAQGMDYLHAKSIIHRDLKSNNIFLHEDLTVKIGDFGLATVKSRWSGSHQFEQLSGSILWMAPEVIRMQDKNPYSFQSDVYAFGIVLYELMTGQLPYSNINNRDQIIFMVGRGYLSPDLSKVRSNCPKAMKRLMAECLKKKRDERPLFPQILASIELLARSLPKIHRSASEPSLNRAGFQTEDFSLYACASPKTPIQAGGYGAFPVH
UniProt P10809, residues 27-573: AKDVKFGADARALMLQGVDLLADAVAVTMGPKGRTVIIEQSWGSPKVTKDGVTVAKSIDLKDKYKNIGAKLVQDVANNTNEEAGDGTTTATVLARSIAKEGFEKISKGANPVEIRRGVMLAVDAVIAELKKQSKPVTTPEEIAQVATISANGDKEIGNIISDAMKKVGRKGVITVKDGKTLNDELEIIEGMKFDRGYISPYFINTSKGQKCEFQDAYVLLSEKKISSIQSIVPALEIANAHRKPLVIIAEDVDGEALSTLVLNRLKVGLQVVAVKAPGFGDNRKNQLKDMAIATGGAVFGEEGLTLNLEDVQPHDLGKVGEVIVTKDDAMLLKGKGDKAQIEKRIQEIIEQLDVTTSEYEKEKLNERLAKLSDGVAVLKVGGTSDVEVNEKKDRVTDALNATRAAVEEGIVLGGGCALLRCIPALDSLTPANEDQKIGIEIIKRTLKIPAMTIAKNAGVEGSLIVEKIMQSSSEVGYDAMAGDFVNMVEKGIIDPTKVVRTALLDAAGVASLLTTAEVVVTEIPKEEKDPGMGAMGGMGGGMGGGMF

This assay has as its target 3xFlag-BRAF (UniProt P15056). Description: affinity purification with mass spectrometry; HEK293T transfected with 3xFlag-BRAF for 24 h; lysate in IP lysis buffer (50 mM Tris pH 6.8, 30 mM NaCl, 1% Triton X-100, 1 mM PMSF) incubated with anti-Flag agarose beads for 12 h; bands cut from SDS-PAGE; LC-MS/MS.

These are yes or no findings as the source states them, for the method shown. In cells and extracts the contact can be indirect. Here binding means that the protein was enriched with, or labelled near, the bait; the list need not be complete.

For “heat shock protein 60, endogenous, HEK293T (from UniProt P10809 27-573)”, the binding result is “binds”.
